In the supplement of paper PMC7877785:
± gives the uncertainty stated by the source. Many of these values have a large error.

Experiment: self-splicing fitness, log relative to wild type (ln ratio); higher = more splicing; Tetrahymena group I intron in knt gene, E. coli kanamycin selection, DiMSum; sequences stand for … in CUCUCU…GGAGGGAAAAGUUAUCAGGCAUGCACCUGGUAGCUAGUCUUUAAACCAAUAGAUUGCAUCGGUUUAAAAGGCAAGACCGUCAAAUUGCGGGAAAGGGGUCAACAGCCGUUCAGUACCAAGUCUCAGGGGAAACUUUGAGAUGGCCUUGCAAAGGGUAUGGUAAUAAGCUGACGGACAUGGUCCUAACCACGCAGCCAAGUCCUAAGUCAACAGAUCUUCUGUUGAUAUGGAUGCAGUUCACAGACUAAAUGUCGGUCGGGGAAGAUGUAUUCUUCUCAUAAGAUAUAGUCGGACCUCUCCUUAAUGGGAGCUAGCGGAUGAAGUGAUGCAACACUGGAGCCGCUGGGAACUAAUUUGUAUGCGAAAGUAUAUUGAUUAGUUUUGGAGUACUCGUGGUCG
In short: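 The eight P1ex-region nucleotides of an intron in the knt kanamycin-resistance gene on pET-22b(+) were all randomised and the library put into E. coli BL21(DE3). Six replicate transformations were grown overnight at 37°C or 30°C on LB agar with or without 25 μg/mL kanamycin, together with 100 μg/mL carbenicillin, 50 μM IPTG and 0.2% rhamnose. Colonies were pooled and amplicon-sequenced on an Illumina HiSeq 2500. Fitness from DiMSum is the error-weighted combination of wild-type-normalised replicate fold changes, kanamycin over none.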

Row | Sequence | self-splicing fitness (ln) (30 °C) | self-splicing fitness (ln) (37 °C)
1 | CUUGAGCAAUAUUACGGCAU | -3.69 ± 0.52 | -1.93 ± 0.28
2 | UACGAGCAAUAUUACGGAUU | – | -2.16 ± 1.1
3 | UCCUAGCAAUAUUACGAUUA | -4.27 ± 0.59 | –
4 | GCGGAGCAAUAUUACGGUGC | – | -1.84 ± 1.1
5 | CUUCAGCAAUAUUACGCUUU | -4.78 ± 0.58 | -2.85 ± 0.31
6 | CAUGAGCAAUAUUACGGCCC | – | -1.37 ± 1.2
7 | UAAUAGCAAUAUUACGUUCC | -3.48 ± 1.1 | –
8 | CAAGAGCAAUAUUACGACAC | -3.27 ± 0.74 | -1.4 ± 0.53
9 | AGGGAGCAAUAUUACGCAAA | -3.12 ± 1.1 | 0.235 ± 0.6
10 | CAAUAGCAAUAUUACGCAUC | -3.39 ± 0.73 | –
11 | AUGGAGCAAUAUUACGGGCA | – | -2.19 ± 0.65
12 | CUGGAGCAAUAUUACGGUGC | – | -2.3 ± 0.56
13 | CGCGAGCAAUAUUACGAUUC | -2.62 ± 1.1 | -1.95 ± 0.81
14 | UCCGAGCAAUAUUACGCCAA | -2.68 ± 0.68 | –
15 | AACGAGCAAUAUUACGCCUG | – | -2.99 ± 0.75
16 | GGAGAGCAAUAUUACGGGGA | – | -3.33 ± 1
17 | UCCUAGCAAUAUUACGCUCG | – | -2.89 ± 0.75
18 | GUCAAGCAAUAUUACGCUGC | -5.19 ± 0.51 | –
19 | CCGAAGCAAUAUUACGGACC | -2.68 ± 0.78 | –
20 | CGAAAGCAAUAUUACGCAUC | -3.99 ± 0.61 | –
21 | GUGGAGCAAUAUUACGUGGC | -3.46 ± 0.75 | -3.21 ± 0.74
22 | AACGAGCAAUAUUACGGAAC | – | -3.31 ± 0.52
23 | GCCUAGCAAUAUUACGCCCG | -1.96 ± 1.2 | -1.51 ± 0.88
24 | CCAGAGCAAUAUUACGGGAC | – | -2.84 ± 1
25 | UCUAAGCAAUAUUACGCGAC | -4.84 ± 0.73 | –

Row | Sequence | self-splicing fitness (ln) (30 °C) | self-splicing fitness (ln) (37 °C)
26 | GCGCAGCAAUAUUACGGCGU | – | -2.29 ± 0.51
27 | GGGUAGCAAUAUUACGCGCC | -2.85 ± 0.79 | -0.792 ± 0.54
28 | GCGGAGCAAUAUUACGUUCG | -3.43 ± 0.73 | –
29 | CCUUAGCAAUAUUACGCAUU | – | -2.13 ± 0.56
30 | UGUUAGCAAUAUUACGAGUC | – | -3.24 ± 0.6
31 | UCAUAGCAAUAUUACGGAAC | – | -1.88 ± 1.2
32 | GGUGAGCAAUAUUACGAGCC | -2.84 ± 0.53 | –
33 | CUGAAGCAAUAUUACGCCCA | – | -2.17 ± 0.5
34 | UACCAGCAAUAUUACGGUAG | -2.15 ± 0.086 | -1.16 ± 0.083
35 | UGGUAGCAAUAUUACGACGC | -2.5 ± 0.55 | –
36 | GCAAAGCAAUAUUACGUGAA | -0.989 ± 0.099 | -0.0746 ± 0.12
37 | GGGAAGCAAUAUUACGACGG | -3.75 ± 0.6 | -0.903 ± 0.5
38 | UCAUAGCAAUAUUACGCUUC | -4.05 ± 0.51 | –
39 | GUGGAGCAAUAUUACGACCC | -0.828 ± 0.58 | -0.506 ± 0.87
40 | UAACAGCAAUAUUACGCCUC | -2.18 ± 0.35 | -2.06 ± 0.33
41 | ACGUAGCAAUAUUACGCCCG | -0.224 ± 0.13 | -0.474 ± 0.17
42 | UAGGAGCAAUAUUACGCUGA | -3.38 ± 0.77 | –
43 | AAAGAGCAAUAUUACGCGCU | – | -1.22 ± 0.56
44 | UCUGAGCAAUAUUACGCUUC | – | -3.2 ± 0.73
45 | UGGUAGCAAUAUUACGGGGU | – | -2.96 ± 0.75
46 | AUUAAGCAAUAUUACGAGAA | -2.83 ± 0.57 | –
47 | AGUGAGCAAUAUUACGGAGA | -3.96 ± 0.52 | –
48 | UUCCAGCAAUAUUACGAUCU | -4.11 ± 0.59 | -2.08 ± 0.56
49 | UUUGAGCAAUAUUACGUUCC | – | -2.64 ± 0.75
50 | CCCAAGCAAUAUUACGGCGC | -4.63 ± 0.59 | –

Row | Sequence | self-splicing fitness (ln) (30 °C) | self-splicing fitness (ln) (37 °C)
51 | UUUUAGCAAUAUUACGGUGG | -1.24 ± 0.084 | -1.16 ± 0.13
52 | UAUGAGCAAUAUUACGGAAC | -2.87 ± 1.1 | -2.69 ± 0.62
53 | GUUAAGCAAUAUUACGCGGC | – | -1.39 ± 1.2
54 | GGGCAGCAAUAUUACGGUAA | -1.69 ± 0.27 | -0.663 ± 0.19
55 | CCGCAGCAAUAUUACGGCCC | – | -0.95 ± 0.73
56 | GGCCAGCAAUAUUACGCCGC | – | -2.46 ± 0.54
57 | GGAGAGCAAUAUUACGCUGC | -3.55 ± 0.54 | -1.9 ± 0.65
58 | CUCGAGCAAUAUUACGCUUG | -3.81 ± 0.52 | -3.27 ± 0.6
59 | UGACAGCAAUAUUACGGAUU | -2.54 ± 0.094 | -2.29 ± 0.13
60 | UUGUAGCAAUAUUACGGAGA | -3.34 ± 1 | –
61 | CGUAAGCAAUAUUACGCAUC | -3.66 ± 0.6 | –
62 | GUACAGCAAUAUUACGUCAU | -1.7 ± 0.09 | -1.13 ± 0.11
63 | ACUGAGCAAUAUUACGACCC | -2.44 ± 0.68 | –
64 | CGUUAGCAAUAUUACGAAAC | -4.03 ± 0.6 | –
65 | GUUGAGCAAUAUUACGAGAC | -1.86 ± 0.52 | –
66 | AAGAAGCAAUAUUACGGGGC | -4.79 ± 0.59 | –
67 | CUAGAGCAAUAUUACGAAAU | – | -1.62 ± 0.68
68 | UUCUAGCAAUAUUACGGCAC | -1.32 ± 1.4 | –
69 | UAAGAGCAAUAUUACGUCCU | -3.45 ± 0.8 | –
70 | CUGGAGCAAUAUUACGGAGA | -3.11 ± 0.42 | -1.91 ± 0.63
71 | UUGCAGCAAUAUUACGCUGG | – | -2.94 ± 0.53
72 | UGUUAGCAAUAUUACGUUCA | 0.071 ± 0.12 | -0.114 ± 0.14
73 | AGCGAGCAAUAUUACGACAG | -1.98 ± 0.56 | –
74 | CGGCAGCAAUAUUACGGGAC | -3.27 ± 0.5 | –
75 | AAGGAGCAAUAUUACGAUUA | -3.64 ± 0.74 | –

Row | Sequence | self-splicing fitness (ln) (30 °C) | self-splicing fitness (ln) (37 °C)
76 | UCCGAGCAAUAUUACGACCC | – | -2.39 ± 1.1
77 | UAUGAGCAAUAUUACGCACU | -3.07 ± 0.61 | -0.818 ± 0.54
78 | GUGCAGCAAUAUUACGACGU | -0.779 ± 0.11 | 0.0794 ± 0.13
79 | CUCCAGCAAUAUUACGGCAG | -4.58 ± 0.21 | -1.75 ± 0.15
80 | CUGAAGCAAUAUUACGUUUC | – | -2.29 ± 0.53
81 | UUAGAGCAAUAUUACGAACC | -2.64 ± 0.6 | –
82 | UUUGAGCAAUAUUACGUGCG | -4.13 ± 0.6 | –
83 | CAGGAGCAAUAUUACGGUUU | – | -4.6 ± 0.72
84 | CUUGAGCAAUAUUACGAUUC | -2.47 ± 1.1 | –
85 | UGAGAGCAAUAUUACGGAAA | -3.06 ± 1.1 | –
86 | AAUUAGCAAUAUUACGGCCU | -0.324 ± 0.097 | 0.38 ± 0.16
87 | UCACAGCAAUAUUACGAAUC | -3.53 ± 0.6 | –
88 | CGAUAGCAAUAUUACGCCCG | -1.39 ± 0.18 | -1.44 ± 0.25
89 | UCUGAGCAAUAUUACGAAUU | -2.94 ± 0.53 | -3.27 ± 0.73
90 | GGGUAGCAAUAUUACGCCAG | -3.27 ± 1.1 | –
91 | AACGAGCAAUAUUACGCCAU | -2.91 ± 0.27 | -1.52 ± 0.27
92 | CGUCAGCAAUAUUACGGAAG | -0.632 ± 0.088 | 0.304 ± 0.12
93 | GGUUAGCAAUAUUACGAAAG | -2.34 ± 0.78 | -1.25 ± 0.53
94 | UAGGAGCAAUAUUACGCAGA | -2.02 ± 1.2 | -1.95 ± 0.6
95 | CUUAAGCAAUAUUACGAGUU | -4.5 ± 0.52 | –
96 | AACGAGCAAUAUUACGGGGU | – | -3.04 ± 0.74
97 | UCAUAGCAAUAUUACGGGCC | -3.34 ± 0.6 | -3.67 ± 0.46
98 | UCUGAGCAAUAUUACGACUC | – | -2.5 ± 0.62
99 | CUGCAGCAAUAUUACGCAUC | -4.48 ± 1 | –
100 | ACAGAGCAAUAUUACGUCGC | -2.98 ± 0.31 | -3.02 ± 0.31

Record cards, from the list above.
UCACAGCAAUAUUACGAAUC as listed: self-splicing fitness (ln) (30 °C): -3.53 ± 0.6
GUGCAGCAAUAUUACGACGU as listed: self-splicing fitness (ln) (30 °C): -0.779 ± 0.11; self-splicing fitness (ln) (37 °C): 0.0794 ± 0.13
AACGAGCAAUAUUACGGGGU as listed: self-splicing fitness (ln) (37 °C): -3.04 ± 0.74
CUGCAGCAAUAUUACGCAUC as listed: self-splicing fitness (ln) (30 °C): -4.48 ± 1

The list goes on:

Row | Sequence | self-splicing fitness (ln) (30 °C) | self-splicing fitness (ln) (37 °C)
101 | AGCCAGCAAUAUUACGCGUA | -1.99 ± 0.13 | -1.44 ± 0.14
102 | GGCUAGCAAUAUUACGAGAC | – | -1.99 ± 0.5
103 | CACGAGCAAUAUUACGAAAA | -2.14 ± 0.17 | -2.66 ± 0.25
104 | AAUGAGCAAUAUUACGCACC | -3.19 ± 0.78 | –
105 | ACUUAGCAAUAUUACGCUGA | -2.63 ± 0.49 | -2.05 ± 0.69
106 | GGGAAGCAAUAUUACGGGGC | – | -2.71 ± 0.53
107 | CUGCAGCAAUAUUACGCUAA | – | -3.1 ± 0.52
108 | GAAGAGCAAUAUUACGCCAG | -3.42 ± 0.55 | -0.627 ± 0.38
109 | UUUGAGCAAUAUUACGCUCC | – | -0.74 ± 0.67
110 | GCAGAGCAAUAUUACGAAUG | – | -2.67 ± 0.75
111 | CCCUAGCAAUAUUACGAAAG | – | -2.75 ± 0.54
112 | GGUUAGCAAUAUUACGGUUC | -0.571 ± 0.086 | -0.114 ± 0.11
113 | GGGUAGCAAUAUUACGACUC | -3.32 ± 0.78 | 0.0466 ± 0.63
114 | CCAUAGCAAUAUUACGAACC | – | -1.16 ± 0.55
115 | CUAGAGCAAUAUUACGGGCU | -3.54 ± 0.76 | -2.84 ± 0.74
116 | CCAGAGCAAUAUUACGAGAA | – | -0.75 ± 0.82
117 | UCUUAGCAAUAUUACGUAAU | -5 ± 0.45 | -2.58 ± 0.2
118 | CAGUAGCAAUAUUACGGAAC | -3.72 ± 1 | –
119 | AGACAGCAAUAUUACGAAUC | -4.38 ± 0.72 | –
120 | CCGGAGCAAUAUUACGUACA | – | -3.75 ± 0.59
121 | CAUUAGCAAUAUUACGGCCA | – | -2.75 ± 0.54

Two entries from above, field by field:
GGCUAGCAAUAUUACGAGAC
  self-splicing fitness (ln) (37 °C) = -1.99 ± 0.5
GGUUAGCAAUAUUACGGUUC
  self-splicing fitness (ln) (30 °C) = -0.571 ± 0.086; self-splicing fitness (ln) (37 °C) = -0.114 ± 0.11
